Assay results from the supplement of paper PMC8728848.
This is one part of the list.

Experiments:
Assay in all cases: glycan array binding signal (z-score within array); higher = stronger binding
Conditions in all cases: glycan notation: IUPAC condensed, linker removed
Fuc(a1-3)GlcNAc = target: Fuc(a1-3)GlcNAc
Method in brief: (§1)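 Columns mapping to the same glycan were averaged after glycan names were converted to IUPAC-condensed notation. The data come from 3228 arrays in the Consortium for Functional Glycomics database, limited to those with an available protein sequence. Binding is reported as a within-array Z-score averaged across arrays of one protein sequence and across linkers.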

[1] = target: Fuc(a1-3)[Gal(b1-4)]Glc6S
Method in brief: as §1

[2] = target: Fuc(a1-3)[Gal(b1-4)]GlcNAc
Method in brief: as §1

[3] = target: Fuc(a1-3)[Gal(b1-4)]GlcNAc(b1-2)Man
Method in brief: as §1

[4] = target: Fuc(a1-3)[Gal(b1-4)]GlcNAc(b1-2)Man(a1-3)[Fuc(a1-3)[Gal(b1-4)]GlcNAc(b1-2)Man(a1-6)]Man(b1-4)GlcNAc(b1-4)GlcNAc
Method in brief: as §1

[5] = target: Fuc(a1-3)[Gal(b1-4)]GlcNAc(b1-2)Man(a1-3)[Fuc(a1-3)[Gal(b1-4)]GlcNAc(b1-2)Man(a1-6)]Man(b1-4)GlcNAc(b1-4)[Fuc(a1-6)]GlcNAc
Method in brief: as §1

[6] = target: Fuc(a1-3)[Gal(b1-4)]GlcNAc(b1-3)Gal(b1-3)[Fuc(a1-4)]GlcNAc
Method in brief: as §1

[7] = target: Fuc(a1-3)[Gal(b1-4)]GlcNAc(b1-3)Gal(b1-4)[Fuc(a1-3)]GlcNAc
Method in brief: as §1

[8] = target: Fuc(a1-3)[Gal(b1-4)]GlcNAc(b1-3)Gal(b1-4)[Fuc(a1-3)]GlcNAc(b1-3)Gal(b1-4)[Fuc(a1-3)]GlcNAc
Method in brief: as §1

[9] = target: Fuc(a1-3)[Gal(b1-4)]GlcNAc(b1-3)GalNAc
Method in brief: as §1

[10] = target: Fuc(a1-3)[Gal(b1-4)]GlcNAc(b1-6)GalNAc
Method in brief: as §1

[11] = target: Fuc(a1-3)[Gal(b1-4)]GlcNAc(b1-6)[Gal(b1-3)GlcNAc(b1-3)]Gal(b1-4)Glc
Method in brief: as §1

[12] = target: Fuc(a1-3)[Gal(b1-4)]GlcNAc6S
Method in brief: as §1

[13] = target: Fuc(a1-3)[Gal3S(b1-4)]Glc
Method in brief: as §1

[14] = target: Fuc(a1-3)[Gal3S(b1-4)]GlcNAc
Method in brief: as §1

[15] = target: Fuc(a1-3)[Gal3S(b1-4)]GlcNAc6S
Method in brief: as §1

[16] = target: Fuc(a1-3)[GalNAc(b1-4)]GlcNAc
Method in brief: as §1

[17] = target: Fuc(a1-3)[GalNAc(b1-4)]GlcNAc6S
Method in brief: as §1

Fuc(a1-4)GlcNAc = target: Fuc(a1-4)GlcNAc
Method in brief: as §1

Fuc(b1-3)GlcNAc = target: Fuc(b1-3)GlcNAc
Method in brief: as §1

Gal(a1-2)Gal = target: Gal(a1-2)Gal
Method in brief: as §1

Gal(a1-3)Gal = target: Gal(a1-3)Gal
Method in brief: as §1

Gal(a1-3)Gal(b1-3)GlcNAc = target: Gal(a1-3)Gal(b1-3)GlcNAc
Method in brief: as §1

[18] = target: Gal(a1-3)Gal(b1-3)GlcNAc(b1-2)Man
Method in brief: as §1

[19] = target: Gal(a1-3)Gal(b1-3)GlcNAc(b1-2)Man(a1-3)[Gal(a1-3)Gal(b1-3)GlcNAc(b1-2)Man(a1-6)]Man(b1-4)GlcNAc(b1-4)GlcNAc
Method in brief: as §1

[20] = target: Gal(a1-3)Gal(b1-3)GlcNAc(b1-3)GalNAc
Method in brief: as §1

[21] = target: Gal(a1-3)Gal(b1-3)GlcNAc(b1-6)GalNAc
Method in brief: as §1

[22] = target: Gal(a1-3)Gal(b1-3)[Fuc(a1-4)]GlcNAc(b1-2)Man(a1-3)[Gal(a1-3)Gal(b1-3)[Fuc(a1-4)]GlcNAc(b1-2)Man(a1-6)]Man(b1-4)GlcNAc(b1-4)GlcNAc
Method in brief: as §1

Gal(a1-3)Gal(b1-4)Glc = target: Gal(a1-3)Gal(b1-4)Glc
Method in brief: as §1

Gal(a1-3)Gal(b1-4)GlcNAc = target: Gal(a1-3)Gal(b1-4)GlcNAc
Method in brief: as §1

[23] = target: Gal(a1-3)Gal(b1-4)GlcNAc(b1-2)Man
Method in brief: as §1

[24] = target: Gal(a1-3)Gal(b1-4)GlcNAc(b1-2)Man(a1-3)[Gal(a1-3)Gal(b1-4)GlcNAc(b1-2)Man(a1-6)]Man(b1-4)GlcNAc(b1-4)GlcNAc
Method in brief: as §1

[25] = target: Gal(a1-3)Gal(b1-4)GlcNAc(b1-3)GalNAc
Method in brief: as §1

[26] = target: Gal(a1-3)Gal(b1-4)GlcNAc(b1-6)GalNAc
Method in brief: as §1

[27] = target: Gal(a1-3)Gal(b1-4)[Fuc(a1-3)]GlcNAc
Method in brief: as §1

[28] = target: Gal(a1-3)Gal(b1-4)[Fuc(a1-3)]GlcNAc(b1-2)Man(a1-3)[Gal(a1-3)Gal(b1-4)[Fuc(a1-3)]GlcNAc(b1-2)Man(a1-6)]Man(b1-4)GlcNAc(b1-4)GlcNAc
Method in brief: as §1

Gal(a1-3)GalNAc = target: Gal(a1-3)GalNAc
Method in brief: as §1

[29] = target: Gal(a1-3)[Gal(a1-4)]Gal(b1-4)GlcNAc
Method in brief: as §1

[30] = target: Gal(a1-4)Gal(b1-3)GlcNAc(b1-2)Man(a1-3)[Gal(a1-4)Gal(b1-3)GlcNAc(b1-2)Man(a1-6)]Man(b1-4)GlcNAc(b1-4)GlcNAc
Method in brief: as §1

Gal(a1-4)Gal(b1-4)Glc = target: Gal(a1-4)Gal(b1-4)Glc
Method in brief: as §1

Gal(a1-4)Gal(b1-4)GlcNAc = target: Gal(a1-4)Gal(b1-4)GlcNAc
Method in brief: as §1

[31] = target: Gal(a1-4)Gal(b1-4)GlcNAc(b1-2)Man(a1-3)[Gal(a1-4)Gal(b1-4)GlcNAc(b1-2)Man(a1-6)]Man(b1-4)GlcNAc(b1-4)GlcNAc
Method in brief: as §1

[32] = target: Gal(a1-4)Gal(b1-4)GlcNAc(b1-3)Gal(b1-4)Glc
Method in brief: as §1

Gal(a1-4)GlcNAc = target: Gal(a1-4)GlcNAc
Method in brief: as §1

Gal(a1-6)Glc = target: Gal(a1-6)Glc
Method in brief: as §1

B1: TAL6-4LysM (Trichoderma atroviride) (protein)
chain: AADSIPSISPTGIITPTPTQSGMVSNCNKFYDVHSNDGCSAIASSQHVDLSSLYKWNPAIKTDCSGLQASVYVCIGILTTSMSTTSKLPTTTSKPSTTSKPPTGITTPTPTQSGMVKNCNKFYDVHSGDGCSAIASSQKVNLSSFYLWNPAVKTDCSGLQASVFVCIGTLTTSMSTTTSKLPTTTSKPSTTSKPPTGIITPTPTQNGMVKNCNKFYDVHSGDGCSAIASSQKVNLSSFYLWNPAVKTDCSGLQASVFVCVGTATTTTAAGITTPTPTQSGMVSGCNKFYDVHAGDGCSAIASSQKIALSSLYKWNPAVKTDCSGLQASVYICIGVGNAAAARVTGALEQKLISEEDLNSAVDHHHHHH
- glycan array binding signal (z-score) (Fuc(a1-3)GlcNAc): -0.556
- glycan array binding signal (z-score) [1]: 0.195
- glycan array binding signal (z-score) [2]: 0.512
- glycan array binding signal (z-score) [3]: -0.996
- glycan array binding signal (z-score) [4]: 0.948
- glycan array binding signal (z-score) [5]: 0.619
- glycan array binding signal (z-score) [6]: 0.455
- glycan array binding signal (z-score) [7]: -0.322
- glycan array binding signal (z-score) [8]: -1.67
- glycan array binding signal (z-score) [9]: -0.606
- glycan array binding signal (z-score) [10]: -0.062
- glycan array binding signal (z-score) [11]: 0.549
- glycan array binding signal (z-score) [12]: 0.66
- glycan array binding signal (z-score) [13]: -0.287
- glycan array binding signal (z-score) [14]: -0.556
- glycan array binding signal (z-score) [15]: 0.519
- glycan array binding signal (z-score) [16]: 3.19
- glycan array binding signal (z-score) [17]: -0.396
- glycan array binding signal (z-score) (Fuc(a1-4)GlcNAc): 1.14
- glycan array binding signal (z-score) (Fuc(b1-3)GlcNAc): -0.301
- glycan array binding signal (z-score) (Gal(a1-2)Gal): -0.207
- glycan array binding signal (z-score) (Gal(a1-3)Gal): -0.661
- glycan array binding signal (z-score) (Gal(a1-3)Gal(b1-3)GlcNAc): -1.73
- glycan array binding signal (z-score) [18]: -0.809
- glycan array binding signal (z-score) [19]: 0.359
- glycan array binding signal (z-score) [20]: -1.04
- glycan array binding signal (z-score) [21]: 0.369
- glycan array binding signal (z-score) [22]: 0.387
- glycan array binding signal (z-score) (Gal(a1-3)Gal(b1-4)Glc): -0.807
- glycan array binding signal (z-score) (Gal(a1-3)Gal(b1-4)GlcNAc): -0.344
- glycan array binding signal (z-score) [23]: -1.69
- glycan array binding signal (z-score) [24]: -0.267
- glycan array binding signal (z-score) [25]: 0.346
- glycan array binding signal (z-score) [26]: -1.35
- glycan array binding signal (z-score) [27]: 0.731
- glycan array binding signal (z-score) [28]: -1.56
- glycan array binding signal (z-score) (Gal(a1-3)GalNAc): -0.635
- glycan array binding signal (z-score) [29]: -0.657
- glycan array binding signal (z-score) [30]: -0.356
- glycan array binding signal (z-score) (Gal(a1-4)Gal(b1-4)Glc): -0.552
- glycan array binding signal (z-score) (Gal(a1-4)Gal(b1-4)GlcNAc): 0.197
- glycan array binding signal (z-score) [31]: 0.171
- glycan array binding signal (z-score) [32]: -1.29
- glycan array binding signal (z-score) (Gal(a1-4)GlcNAc): 2.59
- glycan array binding signal (z-score) (Gal(a1-6)Glc): 1.79
